Data as given in PubChem BioAssay AID1259308 (NCATS, 2017)
The whole screen tested about 59,000 reagents; this is a part drawn at random. About 1,510 of all reagents (2.6%) were called active. 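Calls use total luciferase alone and ignore viability, so some active siRNAs may act by altering cell number.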 Reagents against one gene are numbered here. Not all columns of the deposit are shown.

- Aim: 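Candidate targets for better recombinant protein yield in mammalian cells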 (primary screen)
- System: human HEK293 embryonic kidney cells stably expressing firefly luciferase (HEK-CMV-Luc2-Hygro)
- Reagent: single siRNA against human genes, 0.8 pmol siRNA per well
- Duration: 72 h
- Read-out: 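Reporter luminescence and viable-cell signal on separate replicate plates, given as percent of non-targeting control and median/MAD z-scores, plus per-cell luciferase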
- Reading the numbers: total luciferase, z-score: higher = more reporter protein produced
- Hit rule: 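An siRNA counts as active if its total luciferase robust z-score exceeds 3; genes with two or more such siRNAs out of three were retested with fresh siRNAs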
- Calls: active = raised luciferase; inactive = no rise

PLPP3 #1 — total luciferase, z-score: -0.223; Call: inactive
PLPP3 #2 — total luciferase, z-score: -1.63; Call: inactive
PLPP3 #3 — total luciferase, z-score: -0.00783; Call: inactive
DYNC1LI2 #1 — total luciferase, z-score: -2.1; Call: inactive
DYNC1LI2 #2 — total luciferase, z-score: -0.296; Call: inactive
DYNC1LI2 #3 — total luciferase, z-score: 0.411; Call: inactive
KIF25 #1 — total luciferase, z-score: -1.51; Call: inactive
KIF25 #2 — total luciferase, z-score: -1.54; Call: inactive
KIF25 #3 — total luciferase, z-score: 1.62; Call: inactive
OR4N3P #1 — total luciferase, z-score: 2.36; Call: inactive
OR4N3P #2 — total luciferase, z-score: -0.367; Call: inactive
OR4N3P #3 — total luciferase, z-score: 2.79; Call: inactive
ARPC5L #1 — total luciferase, z-score: 2.51; Call: inactive
ARPC5L #2 — total luciferase, z-score: -0.00763; Call: inactive
ARPC5L #3 — total luciferase, z-score: -0.128; Call: inactive
ELMO3 #1 — total luciferase, z-score: 0.423; Call: inactive
ELMO3 #2 — total luciferase, z-score: 2.11; Call: inactive
ELMO3 #3 — total luciferase, z-score: 0.0889; Call: inactive
PYGM #1 — total luciferase, z-score: 0.433; Call: inactive
PYGM #2 — total luciferase, z-score: -0.45; Call: inactive
PYGM #3 — total luciferase, z-score: -0.732; Call: inactive

The list goes on (2 carried over from the part before).
PYGM #2 — total luciferase, z-score: -0.45; Call: inactive
PYGM #3 — total luciferase, z-score: -0.732; Call: inactive
ANKEF1 #1 — total luciferase, z-score: -1.05; Call: inactive
ANKEF1 #2 — total luciferase, z-score: -0.156; Call: inactive
ANKEF1 #3 — total luciferase, z-score: 0.82; Call: inactive
FGL2 #1 — total luciferase, z-score: -1.1; Call: inactive
FGL2 #2 — total luciferase, z-score: -0.281; Call: inactive
FGL2 #3 — total luciferase, z-score: -0.106; Call: inactive
IGSF8 #1 — total luciferase, z-score: 0.993; Call: inactive
IGSF8 #2 — total luciferase, z-score: 0.841; Call: inactive
IGSF8 #3 — total luciferase, z-score: -0.628; Call: inactive
FAM151A #1 — total luciferase, z-score: -1.15; Call: inactive
FAM151A #2 — total luciferase, z-score: -1.26; Call: inactive
FAM151A #3 — total luciferase, z-score: -0.403; Call: inactive
